EP0402313 (dated 1990)
HELM strings list residues between dots; [ac] is acetyl, [am] amide, other brackets name non-standard units.

Assay: Boc solid-phase peptide synthesis; Boc-Trp(CHO)-OCH2-Pam resin; DCCD/HOBt
Conditions: whole synthesis, scale 0.5 mmol

PEPTIDE1{C.S.C.S.S.L.[Nle].D.K.E.C.V.Y.F.C.H.L.D.I.I.W}$PEPTIDE1,PEPTIDE1,1:R3-15:R3|PEPTIDE1,PEPTIDE1,3:R3-11:R3$$$V2.0
isolated mass: 33 mg
